In this assay the target is hypoxia-inducible factor 1α (HIF-1α) (human (endogenous in MCF-7 and MDA-MB-231)) (UniProt Q16665). Description: affinity purification with mass spectrometry; MCF-7 cellular extracts precipitated with IgG or anti-HIF-1α antibody, SDS-PAGE, silver staining, bands analysed by mass spectrometry.

The chains behind the UniProt entries cited, without tags or fusion partners.
UniProt Q16665: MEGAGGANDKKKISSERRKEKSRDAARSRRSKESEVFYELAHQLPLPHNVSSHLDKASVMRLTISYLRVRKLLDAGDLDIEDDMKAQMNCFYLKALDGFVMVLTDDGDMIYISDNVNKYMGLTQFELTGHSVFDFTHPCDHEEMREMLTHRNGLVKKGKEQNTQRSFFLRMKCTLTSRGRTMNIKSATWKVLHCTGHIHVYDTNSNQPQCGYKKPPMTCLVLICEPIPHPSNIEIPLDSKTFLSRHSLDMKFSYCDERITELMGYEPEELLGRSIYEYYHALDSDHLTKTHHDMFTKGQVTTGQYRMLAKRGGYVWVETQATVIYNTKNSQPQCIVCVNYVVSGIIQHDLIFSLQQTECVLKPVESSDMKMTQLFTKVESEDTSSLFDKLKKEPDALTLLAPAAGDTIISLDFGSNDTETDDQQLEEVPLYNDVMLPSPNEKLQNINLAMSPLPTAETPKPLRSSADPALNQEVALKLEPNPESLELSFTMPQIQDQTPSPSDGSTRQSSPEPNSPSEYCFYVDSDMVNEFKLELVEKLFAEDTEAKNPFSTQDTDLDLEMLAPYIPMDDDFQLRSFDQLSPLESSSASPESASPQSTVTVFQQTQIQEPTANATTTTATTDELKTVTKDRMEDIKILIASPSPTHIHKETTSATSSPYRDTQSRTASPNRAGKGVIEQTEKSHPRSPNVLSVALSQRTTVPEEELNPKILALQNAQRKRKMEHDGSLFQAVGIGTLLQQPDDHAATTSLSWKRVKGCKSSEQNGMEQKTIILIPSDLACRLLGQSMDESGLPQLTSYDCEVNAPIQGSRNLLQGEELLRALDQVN

No constants are given. Whether binding was seen depends on the method and setting. Binding seen in cells or lysates may run through a third protein. These calls come from enrichment with a bait or labelling near it, and not all partners need be listed.

B1: aldolase A (ALDOA) (protein, UniProt P04075 1-364)
chain: MPYQYPALTPEQKKELSDIAHRIVAPGKGILAADESTGSIAKRLQSIGTENTEENRRFYRQLLLTADDRVNPCIGGVILFHETLYQKADDGRPFPQVIKSKGGVVGIKVDKGVVPLAGTNGETTTQGLDGLSERCAQYKKDGADFAKWRCVLKIGEHTPSALAIMENANVLARYASICQQNGIVPIVEPEILPDGDHDLKRCQYVTEKVLAAVYKALSDHHIYLEGTLLKPNMVTPGHACTQKFSHEEIAMATVTALRRTVPPAVTGITFLSGGQSEEEASINLNAINKCPLLKPWALTFSYGRALQASALKAWGGKKENLKAAQEEYVKRALANSLACQGKYTPSGQAGAAASESLFVSNHAY
Take B1: the binding entry was “binds”.

Source of the values: PMC8891368.
